Measured values reported in patent publication US20230099707A1.

Molecular target: recombinant AAV9 vector packaging a tdTomato transgene (AAV9)
Assay: anti-AAV Western blot of TFF fractions after complex formation with matrix and 0.6 M NaCl (0.2 micron hollow fiber filter)

B1: purification matrix having an amino acid sequence of SEQ ID NO: 172 (designed binder)
chain: MSKGPGVGVPGLGVPGVGVPGLGVPGVGVPGVGVPGLGVPGVGVPGLGVPGVGVPGVGVPGLGVPGVGVPGLGVPGVGVPGVGVPGLGVPGVGVPGLGVPGVGVPGVGVPGLGVPGVGVPGLGVPGVGVPGVGVPGLGVPGVGVPGLGVPGVGVPGVGVPGLGVPGVGVPGLGVPGVGVPGVGVPGLGVPGVGVPGLGVPGVGVPGVGVPGLGVPGVGVPGLGVPGVGVPGVGVPGLGVPGVGVPGLGVPGVGVPGVGVPGLGVPGVGVPGLGVPGVGVPGVGVPGLGVPGVGVPGLGVPGVGVPGVGVPGLGVPGVGVPGLGVPGVGVPGVGVPGLGVPGVGVPGLGVPGVGVPGVGVPGLGVPGVGVPGLGVPGVGVPGVGVPGLGVPGVGVPGLGVPGVGVPGNRPPIAIVSPQFQEISLPTTSTVIDGSQSTDDDKIVQYHWEELKGPLREEKISEDTAILKLSKLVPGNYTFSLTVVDSDGATNSTTANLTVNKAVDYPG
With B1 the binding was “binds”.

Results are given in words; binding and its absence hold for the method and conditions named. Binding can be weak; no strength is given.
